Measurements: the supplement of paper PMC10849652
Some of the results follow.

Chains of the proteins cited; added tags and fusions are not shown. Lines headed by an entry give the natural chain unless they say otherwise; changes in a name come on top.
UniProt Q6IA69: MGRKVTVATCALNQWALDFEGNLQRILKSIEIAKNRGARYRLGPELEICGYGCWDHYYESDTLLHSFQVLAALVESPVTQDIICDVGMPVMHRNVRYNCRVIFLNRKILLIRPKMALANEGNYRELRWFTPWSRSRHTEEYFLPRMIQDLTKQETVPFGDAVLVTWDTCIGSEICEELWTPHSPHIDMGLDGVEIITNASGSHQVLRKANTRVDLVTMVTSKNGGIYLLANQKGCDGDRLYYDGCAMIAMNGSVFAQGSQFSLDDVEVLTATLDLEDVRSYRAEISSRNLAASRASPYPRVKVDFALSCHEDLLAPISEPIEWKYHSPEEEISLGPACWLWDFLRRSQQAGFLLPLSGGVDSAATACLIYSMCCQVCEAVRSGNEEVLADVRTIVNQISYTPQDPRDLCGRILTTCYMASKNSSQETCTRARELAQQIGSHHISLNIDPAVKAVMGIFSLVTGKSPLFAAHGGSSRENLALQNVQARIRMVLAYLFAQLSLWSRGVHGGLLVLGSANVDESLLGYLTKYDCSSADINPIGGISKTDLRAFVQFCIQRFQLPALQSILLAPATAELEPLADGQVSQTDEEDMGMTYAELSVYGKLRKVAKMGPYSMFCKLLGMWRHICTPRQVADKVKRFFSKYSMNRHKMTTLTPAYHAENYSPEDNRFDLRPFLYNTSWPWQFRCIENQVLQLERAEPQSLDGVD
UniProt P60660, whole entry, looked up: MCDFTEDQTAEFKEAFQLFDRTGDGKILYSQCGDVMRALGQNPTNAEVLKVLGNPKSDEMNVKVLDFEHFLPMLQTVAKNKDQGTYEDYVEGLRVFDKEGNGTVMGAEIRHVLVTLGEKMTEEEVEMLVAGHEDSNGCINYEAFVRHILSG
UniProt P12829: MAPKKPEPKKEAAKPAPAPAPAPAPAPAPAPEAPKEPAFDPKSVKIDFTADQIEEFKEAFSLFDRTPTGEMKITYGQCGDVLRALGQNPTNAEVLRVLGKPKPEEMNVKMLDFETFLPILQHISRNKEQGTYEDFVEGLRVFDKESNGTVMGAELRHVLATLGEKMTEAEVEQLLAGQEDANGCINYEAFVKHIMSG
UniProt P49321, whole entry, looked up: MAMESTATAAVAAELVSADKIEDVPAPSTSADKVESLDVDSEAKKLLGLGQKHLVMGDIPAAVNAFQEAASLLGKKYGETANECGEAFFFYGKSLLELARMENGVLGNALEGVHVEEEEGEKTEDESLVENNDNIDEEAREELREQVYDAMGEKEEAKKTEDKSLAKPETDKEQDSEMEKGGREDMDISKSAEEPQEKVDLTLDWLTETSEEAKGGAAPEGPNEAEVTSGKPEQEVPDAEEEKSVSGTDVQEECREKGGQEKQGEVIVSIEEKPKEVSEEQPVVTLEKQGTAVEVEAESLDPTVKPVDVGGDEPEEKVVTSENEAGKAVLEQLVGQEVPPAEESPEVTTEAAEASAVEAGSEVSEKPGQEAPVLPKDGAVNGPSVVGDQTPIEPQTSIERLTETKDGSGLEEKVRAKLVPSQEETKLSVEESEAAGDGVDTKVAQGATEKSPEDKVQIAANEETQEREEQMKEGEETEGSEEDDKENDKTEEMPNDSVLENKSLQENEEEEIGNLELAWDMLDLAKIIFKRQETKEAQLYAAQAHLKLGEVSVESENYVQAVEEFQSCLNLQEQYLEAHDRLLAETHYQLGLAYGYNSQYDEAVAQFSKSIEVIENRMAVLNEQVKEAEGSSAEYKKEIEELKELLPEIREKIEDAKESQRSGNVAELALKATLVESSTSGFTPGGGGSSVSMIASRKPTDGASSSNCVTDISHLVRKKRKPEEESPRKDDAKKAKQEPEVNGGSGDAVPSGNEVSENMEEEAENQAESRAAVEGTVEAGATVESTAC
UniProt Q9BQ15: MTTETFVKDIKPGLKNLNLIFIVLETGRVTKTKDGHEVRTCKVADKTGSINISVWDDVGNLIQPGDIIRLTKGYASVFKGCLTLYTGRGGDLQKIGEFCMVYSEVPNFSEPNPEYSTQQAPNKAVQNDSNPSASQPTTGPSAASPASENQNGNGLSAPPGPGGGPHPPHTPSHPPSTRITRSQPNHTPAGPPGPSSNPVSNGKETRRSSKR
UniProt Q7Z406, whole entry, looked up: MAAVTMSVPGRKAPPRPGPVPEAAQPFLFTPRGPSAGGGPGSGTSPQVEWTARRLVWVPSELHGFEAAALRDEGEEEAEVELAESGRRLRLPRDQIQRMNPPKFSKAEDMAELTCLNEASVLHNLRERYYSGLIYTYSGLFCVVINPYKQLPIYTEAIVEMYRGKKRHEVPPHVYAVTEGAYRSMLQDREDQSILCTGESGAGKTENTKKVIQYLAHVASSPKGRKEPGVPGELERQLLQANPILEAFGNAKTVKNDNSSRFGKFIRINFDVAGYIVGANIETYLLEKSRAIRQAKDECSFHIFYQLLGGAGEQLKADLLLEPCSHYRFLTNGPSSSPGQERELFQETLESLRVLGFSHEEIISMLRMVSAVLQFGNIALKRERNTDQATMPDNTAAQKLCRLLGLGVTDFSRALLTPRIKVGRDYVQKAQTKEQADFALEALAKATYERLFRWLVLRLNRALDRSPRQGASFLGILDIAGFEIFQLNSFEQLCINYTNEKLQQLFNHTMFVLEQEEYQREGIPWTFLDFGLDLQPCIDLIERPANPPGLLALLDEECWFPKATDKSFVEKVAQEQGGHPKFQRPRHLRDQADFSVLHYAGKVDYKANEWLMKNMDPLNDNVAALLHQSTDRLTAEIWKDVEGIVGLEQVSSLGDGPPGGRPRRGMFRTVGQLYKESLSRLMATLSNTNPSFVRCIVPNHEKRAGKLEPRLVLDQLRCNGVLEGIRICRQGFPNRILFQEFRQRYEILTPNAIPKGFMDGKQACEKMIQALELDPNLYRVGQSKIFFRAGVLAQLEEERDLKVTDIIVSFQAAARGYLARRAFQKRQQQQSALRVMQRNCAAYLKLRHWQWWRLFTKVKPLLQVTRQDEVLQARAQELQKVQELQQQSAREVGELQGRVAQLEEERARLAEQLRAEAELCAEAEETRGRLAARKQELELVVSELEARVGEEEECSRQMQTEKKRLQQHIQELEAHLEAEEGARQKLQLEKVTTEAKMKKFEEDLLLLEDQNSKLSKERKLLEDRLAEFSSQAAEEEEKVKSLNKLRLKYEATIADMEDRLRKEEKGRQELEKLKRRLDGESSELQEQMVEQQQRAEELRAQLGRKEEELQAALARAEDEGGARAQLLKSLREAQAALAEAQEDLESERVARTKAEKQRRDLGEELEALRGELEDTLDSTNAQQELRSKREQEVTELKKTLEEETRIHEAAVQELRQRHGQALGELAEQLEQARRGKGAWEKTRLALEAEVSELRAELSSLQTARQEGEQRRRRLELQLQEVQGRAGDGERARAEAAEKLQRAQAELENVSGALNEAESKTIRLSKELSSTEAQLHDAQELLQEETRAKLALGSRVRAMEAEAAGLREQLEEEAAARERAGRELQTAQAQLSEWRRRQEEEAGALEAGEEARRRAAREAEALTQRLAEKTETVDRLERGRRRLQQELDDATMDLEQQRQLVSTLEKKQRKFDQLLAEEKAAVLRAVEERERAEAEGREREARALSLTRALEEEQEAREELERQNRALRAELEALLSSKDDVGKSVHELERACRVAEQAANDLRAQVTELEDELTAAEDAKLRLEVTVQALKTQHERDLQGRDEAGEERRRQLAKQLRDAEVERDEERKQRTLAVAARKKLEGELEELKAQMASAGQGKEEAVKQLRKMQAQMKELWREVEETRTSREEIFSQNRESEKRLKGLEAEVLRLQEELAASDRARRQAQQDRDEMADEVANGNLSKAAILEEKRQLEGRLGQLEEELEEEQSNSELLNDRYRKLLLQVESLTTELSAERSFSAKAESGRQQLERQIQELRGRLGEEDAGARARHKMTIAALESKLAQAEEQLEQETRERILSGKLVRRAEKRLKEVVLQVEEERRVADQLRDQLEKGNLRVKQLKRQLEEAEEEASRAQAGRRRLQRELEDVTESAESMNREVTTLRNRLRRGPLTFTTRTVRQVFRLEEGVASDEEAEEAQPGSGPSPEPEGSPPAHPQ
UniProt Q13564: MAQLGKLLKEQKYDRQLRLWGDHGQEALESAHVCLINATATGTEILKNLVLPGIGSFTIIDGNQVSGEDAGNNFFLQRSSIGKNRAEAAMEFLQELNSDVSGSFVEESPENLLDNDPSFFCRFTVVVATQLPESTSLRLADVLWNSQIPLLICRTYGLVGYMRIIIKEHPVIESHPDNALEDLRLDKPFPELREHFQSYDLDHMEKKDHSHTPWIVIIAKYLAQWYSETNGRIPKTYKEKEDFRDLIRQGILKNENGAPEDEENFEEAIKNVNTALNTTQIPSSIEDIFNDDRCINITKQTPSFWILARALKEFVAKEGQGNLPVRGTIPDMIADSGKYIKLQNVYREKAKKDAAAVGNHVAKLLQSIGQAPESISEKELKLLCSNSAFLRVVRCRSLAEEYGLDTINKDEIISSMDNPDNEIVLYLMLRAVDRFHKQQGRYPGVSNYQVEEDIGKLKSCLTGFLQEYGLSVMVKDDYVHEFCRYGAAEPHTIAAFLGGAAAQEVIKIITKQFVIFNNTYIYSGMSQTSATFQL
UniProt Q9Y2A7: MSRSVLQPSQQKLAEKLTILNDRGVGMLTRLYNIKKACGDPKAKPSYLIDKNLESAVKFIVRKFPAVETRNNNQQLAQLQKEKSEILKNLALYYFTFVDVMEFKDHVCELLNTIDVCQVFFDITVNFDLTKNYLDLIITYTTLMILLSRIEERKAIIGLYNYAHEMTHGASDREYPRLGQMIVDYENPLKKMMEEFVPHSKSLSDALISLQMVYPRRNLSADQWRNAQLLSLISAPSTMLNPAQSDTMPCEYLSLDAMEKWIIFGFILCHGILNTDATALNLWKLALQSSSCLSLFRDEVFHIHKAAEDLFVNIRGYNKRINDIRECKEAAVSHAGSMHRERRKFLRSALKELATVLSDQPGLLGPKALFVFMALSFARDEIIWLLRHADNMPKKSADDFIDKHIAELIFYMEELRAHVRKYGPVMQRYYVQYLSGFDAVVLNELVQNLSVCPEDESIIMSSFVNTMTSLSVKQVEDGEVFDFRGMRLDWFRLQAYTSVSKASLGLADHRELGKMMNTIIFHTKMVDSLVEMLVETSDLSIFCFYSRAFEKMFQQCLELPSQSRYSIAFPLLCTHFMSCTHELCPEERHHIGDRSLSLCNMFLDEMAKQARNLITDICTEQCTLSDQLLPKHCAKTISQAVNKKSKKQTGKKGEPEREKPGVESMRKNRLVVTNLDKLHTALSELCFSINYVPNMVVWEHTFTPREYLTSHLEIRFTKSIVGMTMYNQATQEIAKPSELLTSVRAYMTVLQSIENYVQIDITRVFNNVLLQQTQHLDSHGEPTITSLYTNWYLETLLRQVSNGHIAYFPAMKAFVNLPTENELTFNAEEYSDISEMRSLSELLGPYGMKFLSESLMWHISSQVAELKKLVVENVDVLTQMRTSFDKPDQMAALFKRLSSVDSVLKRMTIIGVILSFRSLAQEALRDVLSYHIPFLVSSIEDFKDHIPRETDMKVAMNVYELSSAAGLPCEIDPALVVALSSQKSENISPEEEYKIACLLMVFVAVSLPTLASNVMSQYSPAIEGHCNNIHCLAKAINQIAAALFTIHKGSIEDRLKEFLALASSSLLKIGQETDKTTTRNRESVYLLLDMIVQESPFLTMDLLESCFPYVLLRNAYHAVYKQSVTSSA
UniProt Q969V5: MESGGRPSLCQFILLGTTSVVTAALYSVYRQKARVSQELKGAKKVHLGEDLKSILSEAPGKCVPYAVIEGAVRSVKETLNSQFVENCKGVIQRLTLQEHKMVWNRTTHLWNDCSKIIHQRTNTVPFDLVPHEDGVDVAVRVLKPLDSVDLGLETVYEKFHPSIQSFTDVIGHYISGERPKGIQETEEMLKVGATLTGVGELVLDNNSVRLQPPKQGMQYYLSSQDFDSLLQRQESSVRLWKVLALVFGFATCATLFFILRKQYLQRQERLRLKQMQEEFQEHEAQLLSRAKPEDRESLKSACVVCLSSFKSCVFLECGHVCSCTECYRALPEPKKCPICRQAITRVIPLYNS

Columns and labels:
Assay in all cases: log2 fold change, soluble protein after heating vs DMSO (PISA); higher = thermal stabilisation; K562 lysate, 10 uM; active = over 0.2 and 3.5 SD of the protein, either way, in both replicates (recomputed)
nilotinib = compound: Cc1cn(-c2cc(NC(=O)c3ccc(C)c(Nc4nccc(-c5cccnc5)n4)c3)cc(C(F)(F)F)c2)cn1 [nilotinib]
Summary of the method: (§1)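 K562 pellets were dounce-homogenised in PBS pH 7.4 with 1 mM MgCl2, and the crude extract at 1 mg/mL protein was treated with 10 μM compound for 30 min. Aliquots were heated for 3 min across 48°C-58°C, pooled, and brought to 0.5% NP-40 at 4°C; soluble protein was the supernatant after 21,000xg for 90 min. Soluble protein was quantified by TMTpro 16plex LC-MS/MS with channel sums equalised, and reported as log2 fold change in thermal stability against DMSO controls, with values from duplicates.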

[1] = compound: Cc1nc(Nc2n[nH]c3c2CN(C(=O)N[C@H](CN(C)C)c2ccccc2)C3(C)C)c2sccc2n1
Summary of the method: as §1

dasatinib = compound: Cc1nc(Nc2ncc(C(=O)Nc3c(C)cccc3Cl)s2)cc(N2CCN(CCO)CC2)n1 [dasatinib]
Summary of the method: as §1

[2] = compound: Cc1ncc(-c2ccnc(Nc3ccc(S(C)(=O)=O)cc3)n2)n1C(C)C
Summary of the method: as §1

[3] = compound: Cn1cc(-c2ccc3c(c2)CCN3C(=O)Cc2cccc(C(F)(F)F)c2)c2c(N)ncnc21
Summary of the method: as §1

quisinostat = compound: Cn1cc(CNCC2CCN(c3ncc(C(=O)NO)cn3)CC2)c2ccccc21 [quisinostat]
Summary of the method: as §1

tipifarnib = compound: Cn1cncc1[C@@](N)(c1ccc(Cl)cc1)c1ccc2c(c1)c(-c1cccc(Cl)c1)cc(=O)n2C [tipifarnib]
Summary of the method: as §1

[4] = compound: NC(=O)Nc1cc(-c2cccc(F)c2)sc1C(=O)N[C@H]1CCCNC1
Summary of the method: as §1

[5] = compound: NC(=O)c1cnc(N[C@@H]2CCCC[C@@H]2N)nc1Nc1cccc(-n2nccn2)c1
Summary of the method: as §1

[6] = compound: NC1(c2ccc(-c3nc4ccn5c(=O)[nH]nc5c4cc3-c3ccccc3)cc2)CCC1
Summary of the method: as §1

[7] = compound: NCC(=O)Nc1ccc(-n2nc(C(F)(F)F)cc2-c2ccc3c(ccc4ccccc43)c2)cc1
Summary of the method: as §1

vorinostat = compound: O=C(CCCCCCC(=O)Nc1ccccc1)NO [vorinostat]
Summary of the method: as §1

silmitasertib = compound: O=C(O)c1ccc2c(c1)nc(Nc1cccc(Cl)c1)c1ccncc12 [silmitasertib]
Summary of the method: as §1

[8] = compound: O=C1NC(=O)C(c2cnc3ccccn23)=C1c1cn2c3c(cc(F)cc13)CN(C(=O)N1CCCCC1)CC2
Summary of the method: as §1

entospletinib = compound: c1cn2cc(-c3ccc4cn[nH]c4c3)nc(Nc3ccc(N4CCOCC4)cc3)c2n1 [entospletinib]
Summary of the method: as §1

Measured: log2 fold change

NADSYN1 (UniProt Q6IA69)
inactive: nilotinib -0.054 | [1] 0.101 | dasatinib 0.017 | [2] 0.036 | [3] -0.011 | quisinostat 0.027 | tipifarnib -0.005 | [4] -0.038 | [5] -0.009 | [6] -0.006 | [7] -0.01 | vorinostat 0.054 | silmitasertib -0.011 | [8] -0.034 | entospletinib -0.057

MYL6 isoform 2 (UniProt P60660)
inactive: nilotinib 0.106 | [1] -0.023 | dasatinib -0.023 | [2] 0.017 | [3] -0.056 | quisinostat 0.083 | tipifarnib 0.088 | [4] 0.071 | [5] -0.006 | [6] 0 | [7] 0 | vorinostat -0.111 | silmitasertib 0.015 | [8] 0.055 | entospletinib 0.021

MYL4 (UniProt P12829)
inactive: nilotinib 0.016 | [1] 0.008 | dasatinib 0.002 | [2] 0.027 | [3] -0.031 | quisinostat 0.004 | tipifarnib 0.001 | [4] -0.047 | [5] -0.04 | [6] -0.03 | [7] -0.036 | vorinostat 0.095 | silmitasertib -0.042 | [8] 0.026 | entospletinib -0.085

NASP (UniProt P49321)
inactive: nilotinib 0.002 | [1] 0.01 | dasatinib 0.034 | [2] 0.007 | [3] 0.001 | quisinostat 0.052 | tipifarnib 0.024 | [4] -0.026 | [5] -0.016 | [6] -0.001 | [7] 0.003 | vorinostat 0.098 | silmitasertib -0.015 | [8] 0.001 | entospletinib 0.015

Random excerpt: 2 entries already listed
MYL6 isoform 2 (UniProt P60660)
inactive: nilotinib 0.106 | [1] -0.023 | dasatinib -0.023 | [2] 0.017 | [3] -0.056 | quisinostat 0.083 | tipifarnib 0.088 | [4] 0.071 | [5] -0.006 | [6] 0 | [7] 0 | vorinostat -0.111 | silmitasertib 0.015 | [8] 0.055 | entospletinib 0.021

NADSYN1 (UniProt Q6IA69)
inactive: nilotinib -0.054 | [1] 0.101 | dasatinib 0.017 | [2] 0.036 | [3] -0.011 | quisinostat 0.027 | tipifarnib -0.005 | [4] -0.038 | [5] -0.009 | [6] -0.006 | [7] -0.01 | vorinostat 0.054 | silmitasertib -0.011 | [8] -0.034 | entospletinib -0.057

(listing goes on)

NABP2 (UniProt Q9BQ15)
inactive: nilotinib -0.033 | [1] -0.022 | dasatinib 0.024 | [2] -0.029 | [3] 0.138 | quisinostat -0.112 | tipifarnib 0.01 | [4] 0.071 | [5] 0.01 | [6] -0.046 | [7] 0.026 | vorinostat -0.036 | silmitasertib -0.002 | [8] -0.025 | entospletinib 0.021

MYH14 isoform 2 (UniProt Q7Z406)
inactive: nilotinib -0.038 | [1] 0.041 | dasatinib 0 | [2] 0.003 | [3] -0.027 | quisinostat -0.042 | tipifarnib -0.026 | [4] -0.037 | [5] -0.016 | [6] -0.008 | [7] 0.043 | vorinostat 0.056 | silmitasertib 0.003 | [8] -0.002 | entospletinib 0.013

NAE1 (UniProt Q13564)
inactive: nilotinib 0.025 | [1] 0.011 | dasatinib 0.003 | [2] -0.014 | [3] 0.001 | quisinostat -0.021 | tipifarnib -0.002 | [4] 0.019 | [5] 0.012 | [6] -0.03 | [7] 0.022 | vorinostat 0.007 | silmitasertib -0.02 | [8] -0.034 | entospletinib -0.002

NCKAP1 isoform 2 (UniProt Q9Y2A7)
inactive: nilotinib -0.007 | [1] 0.002 | dasatinib -0.004 | [2] 0.022 | [3] 0.006 | quisinostat -0.043 | tipifarnib 0.013 | [4] -0.007 | [5] -0.001 | [6] 0.021 | [7] -0.029 | vorinostat -0.033 | silmitasertib 0.005 | [8] 0.01 | entospletinib 0.008

MUL1 (UniProt Q969V5)
inactive: nilotinib -0.001 | [1] 0.066 | dasatinib -0.025 | [2] -0.037 | [3] -0.004 | quisinostat 0.12 | tipifarnib 0.018 | [4] 0.02 | [5] -0.014 | [6] 0 | [7] 0 | vorinostat 0.094 | silmitasertib 0.027 | [8] -0.112 | entospletinib 0.014

NACA4P (UniProt Q9BZK3)
inactive: nilotinib 0.03 | [1] -0.005 | dasatinib -0.019 | [2] -0.02 | [3] -0.095 | quisinostat 0.069 | tipifarnib -0.023 | [4] 0.008 | [5] 0.006 | [6] -0.09 | [7] 0.201 | vorinostat 0.304 | silmitasertib 0 | [8] 0.014 | entospletinib -0.172

MYH10 isoform 3 (UniProt P35580)
inactive: nilotinib -0.004 | [1] -0.005 | dasatinib 0.003 | [2] 0.007 | [3] -0.004 | quisinostat 0.01 | tipifarnib -0.011 | [4] -0.014 | [5] 0.013 | [6] -0.013 | [7] 0.019 | vorinostat 0.055 | silmitasertib 0.009 | [8] 0.011 | entospletinib 0.004
